Measurements: doi:10.1101/2020.12.07.413385
Like-named read-outs stand apart in the source and are kept apart here. No constants are given. Whether binding was seen depends on the method and setting. For some of these results: In cells and extracts the contact can be indirect. Some results given as binding are weak or reduced against the parent protein; the word gives no strength. Values belong to the molecule of their own block, whether it stands above or below them.

Sequences of proteins named here, by UniProt entry; tags and fusion partners are left off.
UniProt Q9BVS4: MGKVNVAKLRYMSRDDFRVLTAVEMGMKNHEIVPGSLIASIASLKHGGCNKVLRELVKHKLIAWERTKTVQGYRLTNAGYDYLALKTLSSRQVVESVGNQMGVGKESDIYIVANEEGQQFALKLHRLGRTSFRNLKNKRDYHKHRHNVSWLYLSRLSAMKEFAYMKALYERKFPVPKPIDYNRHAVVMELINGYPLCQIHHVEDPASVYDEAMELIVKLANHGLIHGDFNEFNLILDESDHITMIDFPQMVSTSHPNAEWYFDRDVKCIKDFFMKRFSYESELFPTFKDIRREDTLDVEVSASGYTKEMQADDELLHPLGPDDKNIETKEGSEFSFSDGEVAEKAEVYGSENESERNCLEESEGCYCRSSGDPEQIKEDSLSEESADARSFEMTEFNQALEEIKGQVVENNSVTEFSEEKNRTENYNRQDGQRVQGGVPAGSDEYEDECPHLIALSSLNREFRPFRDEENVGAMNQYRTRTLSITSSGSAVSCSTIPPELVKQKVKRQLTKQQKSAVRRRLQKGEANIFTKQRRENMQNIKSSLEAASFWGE
UniProt O00425: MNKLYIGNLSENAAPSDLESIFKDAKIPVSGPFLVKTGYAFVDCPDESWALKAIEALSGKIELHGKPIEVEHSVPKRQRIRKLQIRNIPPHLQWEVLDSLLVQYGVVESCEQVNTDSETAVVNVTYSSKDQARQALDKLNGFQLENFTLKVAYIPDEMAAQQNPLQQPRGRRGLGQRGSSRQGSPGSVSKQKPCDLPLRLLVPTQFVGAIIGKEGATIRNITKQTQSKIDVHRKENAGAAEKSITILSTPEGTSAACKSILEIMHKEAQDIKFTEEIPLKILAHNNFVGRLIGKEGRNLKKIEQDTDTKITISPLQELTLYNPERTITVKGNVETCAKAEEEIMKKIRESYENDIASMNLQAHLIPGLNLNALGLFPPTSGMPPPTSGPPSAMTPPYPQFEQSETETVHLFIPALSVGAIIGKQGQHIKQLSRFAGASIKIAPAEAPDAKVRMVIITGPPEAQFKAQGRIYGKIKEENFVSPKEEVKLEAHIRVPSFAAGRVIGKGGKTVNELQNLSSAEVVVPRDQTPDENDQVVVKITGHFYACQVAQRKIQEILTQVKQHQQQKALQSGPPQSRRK
UniProt Q99700: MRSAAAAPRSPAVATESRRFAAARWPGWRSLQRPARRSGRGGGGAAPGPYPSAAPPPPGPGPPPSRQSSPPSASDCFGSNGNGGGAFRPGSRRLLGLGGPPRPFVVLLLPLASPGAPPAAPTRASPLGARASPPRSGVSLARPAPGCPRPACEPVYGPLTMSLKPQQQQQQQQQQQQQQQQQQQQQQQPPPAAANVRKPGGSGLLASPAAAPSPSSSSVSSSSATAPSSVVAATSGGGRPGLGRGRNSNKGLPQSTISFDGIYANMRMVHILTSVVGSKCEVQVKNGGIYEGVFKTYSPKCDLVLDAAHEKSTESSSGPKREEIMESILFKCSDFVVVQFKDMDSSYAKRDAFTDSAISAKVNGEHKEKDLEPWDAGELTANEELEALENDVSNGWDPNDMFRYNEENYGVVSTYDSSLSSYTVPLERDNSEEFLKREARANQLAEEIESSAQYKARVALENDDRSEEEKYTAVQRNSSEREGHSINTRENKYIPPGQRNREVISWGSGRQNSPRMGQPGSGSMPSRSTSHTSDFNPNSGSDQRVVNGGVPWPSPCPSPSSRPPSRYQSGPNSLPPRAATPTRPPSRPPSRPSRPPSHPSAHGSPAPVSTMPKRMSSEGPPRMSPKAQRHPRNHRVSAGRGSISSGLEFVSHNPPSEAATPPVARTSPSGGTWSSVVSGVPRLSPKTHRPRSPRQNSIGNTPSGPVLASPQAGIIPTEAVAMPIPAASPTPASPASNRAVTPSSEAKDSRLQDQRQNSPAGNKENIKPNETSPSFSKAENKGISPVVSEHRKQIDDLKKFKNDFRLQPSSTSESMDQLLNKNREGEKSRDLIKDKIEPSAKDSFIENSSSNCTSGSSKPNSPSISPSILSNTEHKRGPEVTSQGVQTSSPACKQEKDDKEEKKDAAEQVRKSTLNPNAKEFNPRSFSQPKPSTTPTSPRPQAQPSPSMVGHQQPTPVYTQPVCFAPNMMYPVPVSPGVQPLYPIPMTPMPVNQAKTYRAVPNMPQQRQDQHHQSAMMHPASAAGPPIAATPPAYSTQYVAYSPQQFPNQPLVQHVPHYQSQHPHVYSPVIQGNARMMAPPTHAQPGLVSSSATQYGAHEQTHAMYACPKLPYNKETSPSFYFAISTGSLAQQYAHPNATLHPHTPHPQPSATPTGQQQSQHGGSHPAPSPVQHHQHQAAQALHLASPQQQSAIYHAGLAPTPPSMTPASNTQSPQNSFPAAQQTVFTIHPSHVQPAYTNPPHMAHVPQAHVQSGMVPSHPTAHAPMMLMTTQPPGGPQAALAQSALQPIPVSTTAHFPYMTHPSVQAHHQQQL

Legend:
[1] = target: RIOK2 (right open reading frame kinase 2), endogenous (human (endogenous in U87MG-EGFRvIII, GBM301, GBM39, hNPCs)) (UniProt Q9BVS4); experiment: cross-linking + co-IP
[2] = target: RIOK2 (right open reading frame kinase 2), endogenous (human (endogenous in U87MG-EGFRvIII, GBM301, GBM39, hNPCs)) (UniProt Q9BVS4); experiment: co-IP
[3] = target: FLAG-tagged wild-type RIOK2 (RIOK2^WT-FLAG) (human) (UniProt Q9BVS4); experiment: co-IP
[4] = target: IMP3 (IGF2BP3), endogenous (human (endogenous in U87MG, U87MG-EGFRvIII, GBM301, GBM39, hNPCs)) (UniProt O00425); experiment: co-IP
[5] = target: recombinant RIOK2 protein (Origene, cat#TP602270) (UniProt Q9BVS4); experiment: co-IP
[6] = target: IMP3 (IGF2BP3), endogenous (human (endogenous in U87MG, U87MG-EGFRvIII, GBM301, GBM39, hNPCs)) (UniProt O00425); experiment: co-IP; remark: listed apart in the source

binding [1]: binds
Molecule: ATXN2 (from UniProt Q99700 1-1313)

binding [1]: binds
binding [2]: binds
binding [3]: binds
Molecule: IMP3 (IGF2BP3), endogenous (from UniProt O00425 1-579)

binding [4]: binds
Molecule: RIOK2 (right open reading frame kinase 2), endogenous (from UniProt Q9BVS4 1-552)

Molecule: recombinant IMP3 protein (Origene, cat#TP760798) (from UniProt O00425 1-579)
binding [5]: binds

binding [6]: no binding
B1: NOB1 (protein, UniProt Q9ULX3 1-412)
chain: MAPVEHVVADAGAFLRHAALQDIGKNIYTIREVVTEIRDKATRRRLAVLPYELRFKEPLPEYVRLVTEFSKKTGDYPSLSATDIQVLALTYQLEAEFVGVSHLKQEPQKVKVSSSIQHPETPLHISGFHLPYKPKPPQETEKGHSACEPENLEFSSFMFWRNPLPNIDHELQELLIDRGEDVPSEEEEEEENGFEDRKDDSDDDGGGWITPSNIKQIQQELEQCDVPEDVRVGCLTTDFAMQNVLLQMGLHVLAVNGMLIREARSYILRCHGCFKTTSDMSRVFCSHCGNKTLKKVSVTVSDDGTLHMHFSRNPKVLNPRGLRYSLPTPKGGKYAINPHLTEDQRFPQLRLSQKARQKTNVFAPDYIAGVSPFVENDISSRSATLQVRDSTLGAGRRRLNPNASRKKFVKKR
